Screen size: about 230,000 compounds; about 310 (0.13%) were called active. This list was built around the results that the source calls inconclusive (neither active nor inactive); the mix of calls is not that of the screen. Calls follow the shape of the dose curve; as a rule, active = well fitted activation curve with a large enough effect; inconclusive = small, poorly fitted or top-dose-only effect; inactive = no such curve, though single readings can be large or run the other way. Where the call is inconclusive, the potency comes from a doubtful curve fit.
assay: qHTS Multiplex Assay to Identify Dual Action Probes in a Cell Model of Huntington: Cytoprotection (ATP); conditions: PC12 HTT-Q103 induced, ATP luminescence, 40 h; cytoprotection (ATP increase): at 56.4 µM (top of the series) unless noted;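 as to cytoprotection (ATP increase): toxic huntingtin expression switched on by the ecdysone agonist tebufenozide; % of control where 0% means no effect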
Source text: NIH Chemical Genomics Center [NCGC]
NIH Molecular Libraries Probe Production centers Network [MLPCN]
Assay Submitter (PI): Wei Zheng
Huntington's disease is a neurodegenerative disorder caused by a trinucleotide repeat expansion in Exon 1 of the Huntingtin gene. The CAG trinucleotide encodes glutamine and polyglutamine expansions cause cell death in selective areas of the brain. Huntington polyglutamine repeats have the tendency to form aggregates which are observable in later stages of the disease. The exact nature of the aggregates, whether toxic, protective, or insignificant, is unclear.
A stable PC12 cell line containing a gene fusion of Exon 1 of the Huntingtin gene linked to GFP under the control of the inducible ecdysone promoter were used as the cell-based model of Huntington Disease for high throughput screening. Exon 1 of the Huntingtin gene contained an expansion of 103 polyglutamines (Q103) which, when expressed, caused cell death and distinct, bright GFP aggregates. The amount of cell death and the size and intensity of GFP aggregates increased over time and induction level. The cell death were quantified with a measurement of ATP content in the cells. A maximal 40-50% of cell death was observed when the Huntington gene was induced in this cell line.
We optimized this assay in a homogeneous 1536 well format. A quantitative high throughput screen (qHTS) was conducted on the PC12 cells which were induced to express the toxic fusion construct. Small molecules which prevented cell death were identified by using a luminescent ATP quantification method (Perkin Elmer's ATPlite).
PC12 cells stably containing a construct with an ecdysone inducible promoter expressing GFP fused to the exon 1 of HTTQ103 (Huntington protein which containing a 103 ployglutamine expansion) were used.
NCGC Assay Protocol Summary:
Sequence, Parameter, Description
1, Reagent, 5 uL 1500 cells/well 1536 TC treated White clear bottom plate
2, Compound, 23 nL Tebufenozide inducer (100 nM final) to all columns
3, Compound, 23 nL 40 uM to 0.5 nM Libraries
5, Reagent, 5 ul ATPLite cell death assay reagent
6, Detector, 4 sec integration with a Viewlux Luminescent
Media consisted of phenol red free DMEM + 5% equine serum (Hyclone # SH30072.03 ), 5% supplemented Bovine Calf Serum (Hyclone # SH30074.03 ), 1x pen/strep, no G418
Control columns: 1 = DMSO, 2= 2 uM teb dilns (1:1), 4 = 100 nM Teb inducer. Sample columns received 100 nM Teb.
Potency is read from the fitted curve at half-maximal effect.

Compound | cytoprotection (ATP increase) | Potency
Cc1ccccc1NC(=O)C(=Cc1ccc(C(=O)O)cc1)C(=O)Nc1ccccc1C | inactive: 40.2% [at 10 µM] | 
C=CC[C@](C)(Nc1ccc(OC)cc1)C(=O)OCC |  | inconclusive: 2 µM [activator, partial curve, poor fit]
O=S(=O)(CCSc1ccccn1)c1nc2ccccc2s1 | inactive: 6.06% [at 0.074 µM] | 
O=C(N/N=C1/C[C@@H](O)[C@@H](O)[C@@H]2[C@H]3C(=O)N(c4ccc(F)cc4F)C(=O)[C@@H]3CC[C@@H]12)OCc1ccccc1 |  | inconclusive: 0.1 µM [activator, full curve, poor fit]
CC1(C)Cc2nc3sc4c(=O)n(CC(=O)NCc5ccco5)cnc4c3cc2CO1 | inactive: -20% [at 0.074 µM] | 
Cc1ccc(C)c(CSCC(=O)NCc2cccs2)c1 |  | active: 3.55 µM
C=C[C@@H](C)[C@](C)(O)c1ccccc1 |  | inconclusive: 0.562 µM [activator, full curve, poor fit]
CN(C1CCCCC1)S(=O)(=O)c1ccc(S(=O)(=O)N2CCCC2)cc1 | inactive: 5.72% [at 10 µM] | 
CCOc1ccc(OCC(=O)Nc2nccs2)cc1 | inactive: -148% | 
O=C(Cc1ccc([N+](=O)[O-])cc1)N1CCCCCC1 |  | inconclusive: 6.31 µM [activator, single point]
Cc1cccc(Cn2cnc3c(NS(C)(=O)=O)c(C)c(C)cc32)c1 | inactive: -16.3% | 
CC1CC(C)CN(C(=O)c2ccc3c(c2)N(Cc2ccccc2)CCS3)C1 (configuration not stated) |  | inconclusive: 0.0891 µM [activator, partial curve, poor fit]
COc1cccc(C2=NOC(C(=O)Nc3cccnc3Cl)C2)c1 (configuration not stated) |  | inconclusive: 7.94 µM [activator, partial curve]
CC1CCc2onc(C(=O)O)c2C1 (configuration not stated) |  | inconclusive: 1.26 µM [activator, single point]
C=C1CC[C@H]2C(C)(C)[C@H](O)CC[C@]2(C)[C@@H]1COc1ccc2ccc(=O)oc2c1 |  | inconclusive: 39.8 µM [activator, single point]
O=C(CNS(=O)(=O)c1cccc2nsnc12)NC1CCCCC1 | inactive: 13.1% | 
Cc1c(NC(=O)COC(=O)C2(c3ccccc3F)CCCC2)c(=O)n(-c2ccccc2)n1C |  | inconclusive: 5.62 µM [activator, single point]
O=C(Nc1ccc(Br)cc1)c1cccnc1N1CCOCC1 |  | inconclusive: 1.26 µM [activator, single point]
CN1C(=O)CC(c2ccco2)Sc2ccccc21 (configuration not stated) | inactive: -20.4% | 
COC(=O)CCCC1=CC2=CC(=O)C(C)(OC(=O)c3cccs3)C(=O)C2=CN1C1CC1 (configuration not stated) |  | inconclusive: 2.51 µM [activator, partial curve, poor fit]
O=[N+]([O-])c1cc([N+](=O)[O-])c2cccnc2c1Oc1ccccc1O | inactive: -21% [at 10 µM] | 

Compound | cytoprotection (ATP increase) | Potency
C[C@H](N)CCCC(C)(C)O |  | inconclusive: 0.282 µM [activator, full curve]
COc1ccc(Oc2ncc3nc(-c4cn(C)c5ccccc45)c(=O)n(C4CC4)c3n2)cc1 |  | inconclusive: 17.8 µM [activator, single point]
O=C(NCCc1ccccc1)c1cccc(N2C(=O)C3CC=CCC3C2=O)c1 (configuration not stated) |  | inconclusive: 0.501 µM [activator, partial curve]
Cn1c(NC(=O)C[n+]2cc(-c3ccc(Cl)cc3)n3c2CCC3)cc(=O)n(C)c1=O |  | inconclusive: 5.62 µM [activator, single point]
NS(=O)(=O)c1cc2c(cc1Cl)N[C@@H](C(Cl)Cl)NS2(=O)=O |  | inconclusive: 0.316 µM [activator, full curve]
COCCCN=C1NN=C(c2cc(C)n(-c3ccccc3F)c2C)CS1 | inactive: -114% | 
C/C(=N\Nc1ccc([N+](=O)[O-])cc1)c1cccc(N)c1 | inactive: -31.6% | 
COC(=O)[C@@]1(Cc2ccc(OC)cc2)[C@H]2c3cc(C(=O)N(C)C)n(Cc4ccc(C)c(F)c4F)c3C[C@H]2CN1C(=O)c1ccccc1 |  | inconclusive: 11.2 µM [activator, single point]
NC(=S)N/N=C1\CCSc2ccc(Cl)cc21 |  | inconclusive: 3.55 µM [activator, single point]
CC(=O)Nc1ccc(S(=O)(=O)NCC(=O)OCC(=O)N2CCCc3ccccc32)cc1 | inactive: -25.9% [at 10 µM] | 
CCOC(=O)C1=C(c2ccccc2)NC(=S)NC1C (configuration not stated) |  | inconclusive: 1.78 µM [activator, partial curve]
CCCCCCC(=O)N/N=C(\C)Cc1ccccc1 |  | inconclusive: 2.82 µM [activator, partial curve]
O=C(NCCCN1CCN(Cc2ccccc2)CC1)C1CCN(S(=O)(=O)N2CCC3(CC2)OCCO3)CC1 |  | inconclusive: 31.6 µM [activator, single point]
CCC1COC(c2cccn2Cc2ccc(Cl)cc2)=N1 (configuration not stated) |  | inconclusive: 0.794 µM [activator, single point]
COc1ccc(NC(=S)N2CCC(N(C)CCN3CCOCC3)CC2)cc1 |  | inconclusive: 1 µM [activator, partial curve]
CCN(CC)Cc1cc(C(=O)O)c(C)o1 |  | inconclusive: 3.55 µM [activator, partial curve]
COc1ccc(O[C@H]2C=C[C@@H](c3ccccc3)O[C@H]2COC(=O)CC/C(C)=N\O[C@@H](C)c2cn([C@H](CO)Cc3ccccc3)nn2)cc1 |  | inconclusive: 2.24 µM [activator, partial curve, poor fit]
CCOc1ccc(S(=O)(=O)NCc2ccccc2)cc1C(N)=O |  | inconclusive: 5.62 µM [activator, single point]
CC(C)NC(=O)N1CC[C@@]2(CCCN(C(=O)Oc3ccccc3)C2)C1 |  | inconclusive: 3.16 µM [activator, single point]
Cc1nc2cnc(Oc3cccc(Cl)c3)nc2n(C[C@H]2CCCO2)c1=O |  | inconclusive: 0.631 µM [activator, single point]
CC(C)CCc1noc(CN2CCN(c3ccc(Cl)cn3)CC2)n1 | inactive: 1.04% [at 10 µM] | 

Filtered by structure, the entries above with a furan ring, fused or not (3)
Compound | cytoprotection (ATP increase) | Potency
CC1(C)Cc2nc3sc4c(=O)n(CC(=O)NCc5ccco5)cnc4c3cc2CO1 | inactive: -20% [at 0.074 µM] | 
CN1C(=O)CC(c2ccco2)Sc2ccccc21 (configuration not stated) | inactive: -20.4% | 
CCN(CC)Cc1cc(C(=O)O)c(C)o1 |  | inconclusive: 3.55 µM [activator, partial curve]
